Assay results published in paper PMC5187411.
These are yes or no findings as the source states them, for the method shown. In cells and extracts the contact can be indirect. A result given as binding can be weak or reduced; the word gives no strength.

Amino acid sequences for entries named in this document (tags omitted). A change or cut given only in a name is not applied to a line headed by its entry.
UniProt Q388W2: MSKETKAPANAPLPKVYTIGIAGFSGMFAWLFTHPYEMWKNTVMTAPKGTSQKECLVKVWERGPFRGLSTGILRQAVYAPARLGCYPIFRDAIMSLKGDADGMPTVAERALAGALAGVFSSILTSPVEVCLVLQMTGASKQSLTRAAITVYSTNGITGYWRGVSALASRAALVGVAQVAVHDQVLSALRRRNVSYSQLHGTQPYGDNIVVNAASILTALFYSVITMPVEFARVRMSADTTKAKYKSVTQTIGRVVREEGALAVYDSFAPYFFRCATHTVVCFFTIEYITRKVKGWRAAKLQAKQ
UniProt Q38DQ3: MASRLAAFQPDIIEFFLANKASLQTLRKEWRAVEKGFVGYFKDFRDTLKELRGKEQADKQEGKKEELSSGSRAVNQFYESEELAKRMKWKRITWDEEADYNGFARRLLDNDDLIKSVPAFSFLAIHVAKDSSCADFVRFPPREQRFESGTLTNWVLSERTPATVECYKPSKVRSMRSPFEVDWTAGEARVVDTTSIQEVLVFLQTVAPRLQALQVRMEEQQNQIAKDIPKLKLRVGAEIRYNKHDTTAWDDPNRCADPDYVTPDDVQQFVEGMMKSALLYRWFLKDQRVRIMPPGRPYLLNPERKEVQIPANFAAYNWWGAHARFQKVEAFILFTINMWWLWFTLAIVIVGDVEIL

Target: C-terminally myc-tagged MCP12 lacking the first module (T. brucei) (UniProt Q388W2)
Assay: co-IP; IP with anti-myc antibodies from digitonin-solubilized mitochondrial extracts of cells expressing MCP12-FL-myc or MCP12-ΔI-myc; immunoblot

TbTim42 (from UniProt Q38DQ3) was tested. Which binding did it give?
The binding was “binds”.
